Source: PubChem BioAssay AID1439 (NMMLSC, 2008)
Screen size: about 220,000 compounds; about 770 (0.35%) were called active. The inconclusive results got no clear call from the source; some entries with a clear call stand among them for comparison. No stated cut-off is given here; in the data, active means binding response below about 49% or above about 150%; inconclusive means no clear call, values can overlap the other calls; inactive means in between.

Chains of the proteins cited; added tags and fusions are not shown.
UniProt P09471, whole entry, looked up: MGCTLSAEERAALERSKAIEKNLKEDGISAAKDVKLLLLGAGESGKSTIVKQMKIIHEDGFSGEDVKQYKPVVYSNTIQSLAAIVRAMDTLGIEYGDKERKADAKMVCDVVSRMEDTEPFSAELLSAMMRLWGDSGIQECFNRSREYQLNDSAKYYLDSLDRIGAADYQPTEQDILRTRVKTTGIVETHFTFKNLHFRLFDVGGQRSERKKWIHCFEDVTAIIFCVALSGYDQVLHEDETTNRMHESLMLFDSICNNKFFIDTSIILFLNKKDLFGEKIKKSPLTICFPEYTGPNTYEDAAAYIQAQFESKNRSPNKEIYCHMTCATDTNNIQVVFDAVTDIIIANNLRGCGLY

target: Guanine nucleotide-binding protein G(o) subunit alpha (Homo sapiens) (UniProt P09471); experiment: RGS7-Galphao binding modulators, primary screen, biochemical, multiplexed bead flow cytometry (AID 1439); settings: at 10 µM, actives lie on both sides;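 further: fluorescent Galphao held in activated GDP-AlF4 state binding bead-coupled RGS7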

| Compound | binding response (% of control) |
| --- | --- |
| CC(=O)c1c(C)[nH]c(=S)c(C#N)c1-c1ccc(F)cc1 | inconclusive: 72.3% |
| Cc1cc(C(=O)NNC(=O)Nc2ccccc2)no1 | inconclusive: 107% |
| O=C(O)C1CCCN1C(=O)OCC1c2ccccc2-c2ccccc21 (stereo not drawn) | inconclusive: -303% |
| COc1ccc(OC)c(NC(=O)CSc2nncc3ccc(OC)c(OC)c23)c1 | inconclusive: 108% |
| C/C(=C\c1ccco1)CN1CCN(Cc2ccc(C)o2)C(CCO)C1 (stereo not drawn) | inconclusive: 115% |
| Cc1ccc(-c2nc(CN(C)C3CCOC3)c(C)o2)s1 (stereo not drawn) | inactive: 94.6% |
| Cc1csc2c(N3CCN(C(=S)Nc4ccc(C(F)(F)F)cc4)CC3)ncnc12 | inconclusive: 102% |
| CN(C)/C=C/C(=O)c1ccncc1 | inconclusive: 114% |
| O=C(C1CCC(CNc2nc(=S)[nH]c3ccccc23)CC1)N1CCN(c2ccc(F)cc2)CC1 (stereo not drawn) | inactive: 102% |
| O=C(CC1SC(=Nc2ccccc2F)N(CCN2CCOCC2)C1=O)Nc1ccc(F)cc1F (stereo not drawn) | inactive: 87% |
| Cn1ccnc1SCC(=O)Nc1nc2ccccc2s1 | inconclusive: 93.9% |
| Cc1ccc(NC(=O)/C(=C/c2ccc([N+](=O)[O-])cc2)NC(=O)c2ccccc2)cc1 | inconclusive: 110% |
| c1ccc(Nc2c(-c3ccco3)nc3ccccn23)cc1 | inactive: 93.9% |
| Cc1ccc(C(=O)NCC(=O)OC(C)C(=O)Nc2ccc(N(C)C)cc2)s1 (stereo not drawn) | inactive: 101% |
| O=C(NC1CC1)c1cccc(Br)c1 | inactive: 102% |
| CN(C)CC/C=C1/c2ccccc2Sc2ccc(Cl)cc21 | inconclusive: 87.9% |
| CCOc1ccccc1NC(=O)COC(=O)C(CC)c1ccccc1 (stereo not drawn) | inconclusive: 97.7% |
| CCOc1ccc(N2CC(C(=O)Nc3ccccc3N3CCOCC3)CC2=O)cc1 (stereo not drawn) | inactive: 95.6% |
| CC(C)OC(=O)C[N+](C)(C)CCN1C(=O)C2C(c3ccccc3)C=CC(c3ccccc3)C2C1=O (stereo not drawn) | inconclusive: 131% |
| Cc1nc2ccccc2nc1N/N=C/c1ccc(O)cc1 | inconclusive: 92.7% |
| COc1ccc(C[C@H]2CN3C(=NC[C@@H]3Cc3ccccc3)N2C[C@H](C)NC(=O)CCC2CCCCC2)cc1 | inconclusive: 99.8% |
| Cc1cccc(C(=O)N/N=C/c2cc(Br)c(Br)o2)c1 | inactive: 88.8% |
| Cc1ccc(N2CCN(CC(O)COc3cccc4ccccc34)CC2)cc1 (stereo not drawn) | inconclusive: 83.5% |
| CCN(CCO)C(=S)Nc1cc(S(=O)(=O)N(C)C)ccc1C | inconclusive: 104% |

| Compound | binding response (% of control) |
| --- | --- |
| Cc1ccc(C(=O)N2c3ccccc3CC2C)o1 (stereo not drawn) | inconclusive: 116% |
| O=C(O)c1ccc(/C=N/NC(=O)c2ccc(NS(=O)(=O)c3cccs3)cc2)cc1 | inconclusive: 93% |
| CN(C)c1ccc(/C=N/n2c(-c3ccccc3Br)n[nH]c2=S)cc1 | inconclusive: 79.5% |
| Cc1ccc(C(=O)CSc2nnc3c4ccccc4nc(Cc4ccccc4)n23)cc1 | inactive: 106% |
| COC(=O)C1=CN(Cc2cccs2)C=C(C(=O)OC)C1c1cccc(Cl)c1 | inconclusive: 92.7% |
| COC(=O)c1ccc(CSc2nnc(CS(=O)Cc3ccc(Br)cc3)n2-c2ccccc2)cc1 (stereo not drawn) | inactive: 99.3% |
| CCOC(=O)c1c(C)c2c(n1C)CCC/C2=N\O | inactive: 100% |
| COCC(=O)NNS(=O)(=O)c1ccccc1[N+](=O)[O-] | inactive: 112% |
| O=C(CSc1nnc(Cc2ccccc2)o1)NCc1ccc2c(c1)OCO2 | inconclusive: 118% |
| CCc1nc2sc3c(Cl)ncnc3c2c2c1CCCC2 | inconclusive: 98.5% |
| Cc1ccc(OCCC(=O)N2CCN(c3ccc(O)cc3)CC2)cc1 | inconclusive: 94.7% |
| CC1CCCN(Cc2c(O)ccc3c4c(c(=O)oc23)CCCC4)C1 (stereo not drawn) | inconclusive: 96.2% |
| CC(C)(C)C(=O)Nc1nc2ccc(S(C)(=O)=O)cc2s1 | inactive: 100% |
| Cc1cccc(N2CCN(CC(O)COc3ccccc3Cl)CC2)c1 (stereo not drawn) | inconclusive: 103% |
| O=C(O)c1sc2cc(C(F)(F)F)cnc2c1-c1cccs1 | inconclusive: 107% |
| S=C1NCCOCCNC(=S)NCCOCCOCCN1 | inactive: 91.9% |
| CCCN1CCC(NC(=O)Nc2ccc([N+](=O)[O-])cc2)CC1 | inconclusive: 92.6% |
| Cc1nc2ccccc2nc(C)c1=NOCC(=O)N(c1ccccc1)C(C)C | inconclusive: 115% |
| O=C(COc1cccc2ccccc12)N1c2ccccc2CCc2ccccc21 | inactive: 102% |
| CCOP(=O)(OCC)C(NC(=O)Nc1ccc(C)cc1)C(N)=O (stereo not drawn) | inconclusive: 104% |
| Cn1c(C(C#N)C(=O)c2ccco2)nc2ccccc21 (stereo not drawn) | inactive: 112% |
| Cc1nn(C)cc1S(=O)(=O)Nc1ccc2c(c1)OCCO2 | inconclusive: 98.7% |
| CC(=O)C1=C(C)OC2(O)c3ccccc3C(=O)C12O (stereo not drawn) | inconclusive: 91.6% |
| CC(C)CCNC(=O)C(CC(C)C)N(Cc1ccc2c(c1)OCO2)C(=O)c1snc(C(N)=O)c1N (stereo not drawn) | inactive: 99% |

4 successive records out of the list so far:

| Compound | binding response (% of control) |
| --- | --- |
| O=C(O)c1sc2cc(C(F)(F)F)cnc2c1-c1cccs1 | inconclusive: 107% |
| S=C1NCCOCCNC(=S)NCCOCCOCCN1 | inactive: 91.9% |
| CCCN1CCC(NC(=O)Nc2ccc([N+](=O)[O-])cc2)CC1 | inconclusive: 92.6% |
| Cc1nc2ccccc2nc(C)c1=NOCC(=O)N(c1ccccc1)C(C)C | inconclusive: 115% |

The list goes on:

| Compound | binding response (% of control) |
| --- | --- |
| O=C(COc1ccccc1[N+](=O)[O-])Nc1ccc(N2CCN(C(=O)c3cccs3)CC2)cc1 | inactive: 104% |
| COc1cc2[nH]c(=S)n(C3CCCC3)c(=O)c2cc1OC | inactive: 108% |
| Cc1cc(NC(=O)c2ccc(C)s2)n(-c2nc3ccccc3[nH]2)n1 | active: 13.1% |
| COCc1nnc(NC(=O)c2ccc(NC(C)=O)cc2)s1 | inactive: 53.2% |
| COc1cc(OC)nc(NC(=O)NS(=O)(=O)c2ccccc2Cl)n1 | inconclusive: 118% |
| COC(=O)C1=C(C(=O)OC)[C@@H]2N(C)c3ccccc3[C@@]23C[C@@H](C(=O)OC)N(C(=O)CC(C)C)C3=N1 | inconclusive: 89.5% |
| Nc1ccc(Br)c[n+]1Cc1cccc2cccnc12 | inconclusive: 98.5% |
| NC(=O)NC(=O)c1nccnc1C(=O)O | inconclusive: 111% |
| CC(=O)Oc1ccc(-c2cccc(C(=O)N(C)c3ccc(O)cc3)c2)cc1 | inconclusive: 128% |
| O=C1CC(C(=O)O)S/C(=N\N=C\c2ccc(Br)cc2)N1 (stereo not drawn) | inconclusive: 95.1% |
| OCC#CCSc1nnc(-c2ccncc2)o1 | inactive: 100% |
| C#CCOCCOCCOCCNc1nc(OC)nc(N2CCN(C(=O)[C@H](CCCCN)n3cc(C(N)CO)nn3)CC2)n1 (stereo partly drawn) | inconclusive: 107% |
| S=C(Nc1ccccc1)Nc1ccc2cn[nH]c2c1 | inconclusive: 105% |
| CC(=O)O/N=C1\C(=O)N(Cc2ccc(C)cc2)c2ccccc21 | inactive: 71.2% |
| O=C(NCc1ccccc1)c1ccccc1Br | inconclusive: 109% |
| COCC(C)n1c(C)cc(C(=O)CSc2nc(C)c(C)c(C)n2)c1C (stereo not drawn) | inconclusive: 96.7% |
| COc1ccc(Cn2cnc([N+](=O)[O-])c2)cc1[N+](=O)[O-] | inconclusive: 159% |
| NC(=O)CSc1nnc(-c2ccc3c(c2)OCO3)o1 | inconclusive: 63.5% |
| FC(F)(F)c1nc(Sc2ncccc2C(F)(F)F)n[nH]1 | inconclusive: -306% |
| Cc1cc2c(Nc3ccccc3)ncnc2s1 | inconclusive: 110% |
| CCCCOC(=O)c1cc(Cl)c(O)c(OC)c1 | inconclusive: -2.76% |
| O=C(O)CSCC(=O)NC1CCCc2ccccc21 (stereo not drawn) | inconclusive: 86.5% |
| c1ccc(CSc2ccc3nnc(-c4cccnc4)n3n2)cc1 | inactive: 105% |
| Nc1nc(SCC(=O)N2CCCC2)[nH]c(=O)c1NC(=O)c1cccs1 | inconclusive: 119% |

| Compound | binding response (% of control) |
| --- | --- |
| COc1ccc(NC(=O)Nc2ccccc2SC)c(OC)c1 | inconclusive: 91.8% |
| CN(C)N1C(N)=C(C#N)C(c2cccs2)C2=C1CC(C)(C)CC2=O (stereo not drawn) | inactive: 98.3% |
| COc1ccccc1N1C(=O)[C@@H]2C(C(=O)CN3C(=O)c4ccccc4C3=O)=NN[C@@H]2C1=O | inconclusive: 89.1% |
| Cn1c(=O)c2c(O)c(Cc3ccccc3)c(=O)n(C)c2n(C)c1=O | inconclusive: 100% |
| Cc1ccc(-n2cccc2C(=O)NS(=O)(=O)c2ccc(C)cc2)cc1 | inconclusive: 99.8% |
| COc1ccc(CNC(=O)c2cc(-c3ccncc3)nc3c(C)cc(C)cc23)cc1OC | inconclusive: 124% |
| COc1ccc(/C=N/N=C2/SCC(=O)N2Cc2ccccc2)cc1 | inconclusive: 88.3% |
| Cc1ccc(-c2cc(C(F)(F)F)n3nc(C(=O)Nc4ccon4)cc3n2)cc1C | inconclusive: 107% |
| CSc1nnc(-c2sccc2OCc2ccc(C)cc2)n1C | inactive: 103% |
| O=C(NC1CCCCC1)c1ccc(N2CCCC2=O)cc1 | inactive: 120% |
| O=C(Nc1ccc(Br)cn1)C1CCN(S(=O)(=O)c2cccs2)CC1 | inconclusive: -4.2% |
| C=CCOc1c(CCC)cc(CCC)cc1C(N)=O | inconclusive: 100% |
| COc1cccc(CNc2ccccc2O)c1OCc1ccccc1F | inconclusive: 117% |
| CCC(CC)c1ncc[nH]1 | inconclusive: 100% |
| Cn1cccc1/C=N/NC(=O)C(O)c1ccccc1 (stereo not drawn) | inconclusive: 107% |
| CCN(CC)CC(O)Cn1c(-c2cccc(Cl)c2)nc2cc(C)c(C)cc21 (stereo not drawn) | inconclusive: 25.4% |
| CCCCC(O)(CCCC)C(=O)N/N=C(\C)c1ccc(Cl)cc1 | inconclusive: 79.7% |
| CCOC(=O)COc1nc(-c2ccc(C)cc2)cc(-c2ccco2)c1C#N | inconclusive: 78.5% |
| CC(=O)N=Nc1[nH]c(N)c2ccccc12 | inconclusive: 96.8% |
| O=C(N/N=C/c1ccc(O)cc1O)c1ccc(CN2C(=O)c3cccc4cccc2c34)cc1 | inconclusive: 65.7% |
| CC(C)CN1C(=O)/C(=C/c2c(N3CCc4ccccc4C3)nc3ccccn3c2=O)SC1=S | inconclusive: 327% |
